# Literature values, collected in patent publication US20250223171A1, “ALLOTROPE OF CARBON HAVING INCREASED ELECTRON DELOCALIZATION” (Structured Nano Carbon LLC, priority 2017, published 2025).
# For at least one compound, name, drawing or mass did not settle the structure.
# Conditions: cited from earlier work
smiles,measurement,value
c12c3c4c5c1c1c6c7c2c2c8c3c3c9c4c4c%10c5c5c1c1c6c6c%11c7c2c2c7c8c3c3c8c9c4c4c9c%10c5c5c1c1c6c6c%11c2c2c7c3c3c8c4c4c9c5c1c1c6c2c3c41 [C60 fullerene],antioxidant behavior relative to vitamin C or ascorbic acid,172 times that of vitamin C
